Experimental data: PubChem BioAssay AID1259254 (NCATS, 2017)
Here is a random part of about 59,000 deposited reagents. Of all reagents, about 1,550 (2.6%) are marked active. 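G2 share is only a proxy for re-replication; each gene was hit by three separate siRNAs, and active genes were retested.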 Entries without a mark were called inactive. The numbers tell different reagents against one gene apart. Not all columns of the deposit are shown. The record does not give: the amount of reagent.

Aim: 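Finding genes that stop cells copying their DNA twice in one cycle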 (primary screen)
System: human HCT116 colorectal cancer cells
Reagents: single siRNA against human genes
Duration: 3 days
Detection: 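Imaged Hoechst DNA stain sorts each cell into a cycle phase by DNA amount; per plate, G2 fraction set to 0% for non-targeting and 100% for GMNN siRNA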
Scale: G2 robust z-score: higher = more G2 cells, more excess DNA replication
Call rule: 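An siRNA counts as active if its G2 robust z-score lies at least 5 MADs above the screen median; here such calls match roughly 38% of GMNN control or more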

How did the screen score URB1-DT (GeneID 84996) #1?
G2 robust z-score: -0.472

With URB1-DT (GeneID 84996) #2, what does the deposit list?
G2 robust z-score: -0.257

With URB1-DT (GeneID 84996) #3, what was measured?
G2 robust z-score: 0.00528

Which result is listed for TMCO4 (GeneID 255104) #1?
G2 robust z-score: 0.718

What did the screen give for TMCO4 (GeneID 255104) #2?
G2 robust z-score: -0.0583

What is on record for TMCO4 (GeneID 255104) #3?
G2 robust z-score: -0.366

Which result is listed for SNRK (GeneID 54861) #1?
G2 robust z-score: 0

How did the screen score SNRK (GeneID 54861) #2?
G2 robust z-score: -1.17

For SNRK (GeneID 54861) #3, what does the deposit list?
G2 robust z-score: 0.373

Which result is listed for EIF3LP3 (GeneID 340947) #1?
G2 robust z-score: 0.708

With EIF3LP3 (GeneID 340947) #2, what does the deposit list?
G2 robust z-score: -0.259

What is on record for EIF3LP3 (GeneID 340947) #3?
G2 robust z-score: -0.682

For LINC00639 (GeneID 283547) #1, what does the deposit list?
G2 robust z-score: -0.179

For LINC00639 (GeneID 283547) #2, what was measured?
G2 robust z-score: 0.841

What is on record for LINC00639 (GeneID 283547) #3?
G2 robust z-score: -0.336

For SH3BGRL3 (GeneID 83442) #1, what does the deposit list?
G2 robust z-score: -0.77

How did the screen score SH3BGRL3 (GeneID 83442) #2?
G2 robust z-score: -0.439

For SH3BGRL3 (GeneID 83442) #3, what was measured?
G2 robust z-score: -0.175

What is on record for ANKRD36C (GeneID 400986) #1?
G2 robust z-score: -0.0666

For ANKRD36C (GeneID 400986) #2, how do the results read?
G2 robust z-score: -0.279

With ANKRD36C (GeneID 400986) #3, what was measured?
G2 robust z-score: 0.837

Which result is listed for PRR5L (GeneID 79899) #1?
G2 robust z-score: -0.518

With PRR5L (GeneID 79899) #2, what was measured?
G2 robust z-score: 1.04

For PRR5L (GeneID 79899) #3, what was measured?
G2 robust z-score: 1.89
